{"source": "PubChem BioAssay AID624297", "about": "(National Center for Advancing Translational Sciences (NCATS), 2012)", "note": "Screen size: about 340,000 compounds; about 6,200 (1.8%) were called active. The inconclusive results got no clear call from the source; some entries with a clear call stand among them for comparison. Calls follow the shape of the dose curve; as a rule, active = well fitted activation curve with a large enough effect; inconclusive = small, poorly fitted or top-dose-only effect; inactive = no such curve, though single readings can be large or run the other way. Potencies of inconclusive entries are doubtful fits and often do not repeat. Potency is read from the fitted curve at half-maximal effect."}
{"assay": "A quantitative high throughput screen for small molecules that induce DNA re-replication in SW480 colon adenocarcinoma cells; also: nearly all actives have a fitted effect of over 55% in size.", "conditions": "Hoechst DNA content imaging, 48 h; series mostly up to 46.1 µM", "outline": "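Image-based DNA-content assay: after two days of treatment, nuclei were labelled with the DNA dye Hoechst and imaged, and hits were compounds raising the count of nuclei showing high fluorescence intensity.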"}
{"smiles": "CCN(CC)CCCN(Cc1cc2ccc(C)c(C)c2[nH]c1=O)C(=O)NC1CCCCC1", "Potency": "inactive"}
{"smiles": "Cc1ccccc1OCc1nc2ccccc2c(=O)n1/N=C/c1cn[nH]c1-c1ccccc1", "Potency": "inconclusive: 18.4 µM [activator, single point]"}
{"smiles": "COc1ccc(-n2nc3cc(N)c(Br)cc3n2)cc1", "Potency": "inactive"}
{"smiles": "O=C(CSCc1ccccc1Cl)NN1C(=O)c2ccccc2C1=O", "Potency": "inactive"}
{"smiles": "Cc1ccc(-c2nn3c(C)nnc3s2)cc1NC(=O)c1ccc(OC(C)C)cc1", "Potency": "inactive"}
{"smiles": "O=C(Nc1ccccc1Cc1ccccc1)c1ccccc1NS(=O)(=O)c1ccc(Cl)s1", "Potency": "inconclusive: 29.1 µM [activator, single point]"}
{"smiles": "Cn1nnnc1Sc1ncnc2scc(-c3ccccc3Br)c12", "Potency": "inconclusive: 0.517 µM [activator, full curve, poor fit]"}
{"smiles": "CC1(C)Cc2c(sc(NC(=O)COc3ccc(Cl)cc3Cl)c2C(N)=O)C(C)(C)N1", "Potency": "inconclusive: 29.1 µM [activator, single point]"}
{"smiles": "O=C(COC(=O)c1cccc(-n2cnnn2)c1)c1ccccc1", "Potency": "inconclusive: 20.6 µM [activator, partial curve, poor fit]"}
{"smiles": "NC(=O)CC(NC(=O)c1ccc(Br)cc1)c1ccc(NCc2ccc(F)cc2)c([N+](=O)[O-])c1", "note": "(stereo not given)", "Potency": "inconclusive: 0.0046 µM [activator, full curve, poor fit]"}
{"smiles": "COc1ccc(-c2c(-c3cc(OC)cc(OC)c3)n(C)c3ccc(-c4ccc5[nH]ccc5c4)cc23)cc1", "Potency": "inactive"}
{"smiles": "CCc1nnc(NC(=O)C2c3ccccc3Oc3ccccc32)s1", "Potency": "inconclusive: 16.4 µM [activator, partial curve, poor fit]"}
{"smiles": "Cc1nc(C)c(C(=O)OCC(=O)NCc2ccccc2)s1", "Potency": "inactive"}
{"smiles": "CCOc1ccc(CCNC(=O)C2CCN(S(=O)(=O)c3ccc(C)cc3)CC2)cc1OCC", "Potency": "inconclusive: 20.6 µM [activator, partial curve, poor fit]"}
{"smiles": "CS(=O)(=O)N1CCc2cc(C(=O)Nc3cccc([N+](=O)[O-])c3)ccc21", "Potency": "inconclusive: 32.6 µM [activator, single point]"}
{"smiles": "CC(=O)NC(C)(CC(=O)c1ccccc1)c1ccccc1", "note": "(stereo not given)", "Potency": "inactive"}
{"smiles": "CC(=O)c1c(C)[nH]c(C(=O)OCc2nc3ccsc3c(=O)[nH]2)c1C", "Potency": "inconclusive: 8.2 µM [activator, partial curve, poor fit]"}
{"smiles": "CCCc1cc(-n2ccnc2C)n2c(nc3ccccc32)c1C#N", "Potency": "inconclusive: 29.1 µM [activator, single point]"}
{"smiles": "Cc1ccc2[nH]c(=O)c(CN(Cc3ccc4c(c3)OCO4)Cc3nnnn3C3CCCC3)cc2c1", "Potency": "inconclusive: 11.6 µM [activator, partial curve, poor fit]"}
{"smiles": "CCN(c1cccc(C)c1)S(=O)(=O)c1cc(CN2C(=O)c3cccnc3C2=O)ccc1OC", "Potency": "inconclusive: 6.51 µM [activator, single point]"}
{"smiles": "O=C(Cc1ccccc1)NNC(=S)NC(=O)c1cccs1", "Potency": "inconclusive: 16.4 µM [activator, partial curve, poor fit]"}
{"smiles": "CCC(=O)Oc1ccc(NC(=O)c2ccco2)cc1", "Potency": "inconclusive: 5.17 µM [activator, single point]"}
{"smiles": "CCN1CCN(c2ccc(S(=O)(=O)N3CCOCC3)cc2NC(=O)/C=C/c2ccc(OC)cc2OC)CC1", "Potency": "inconclusive: 18.4 µM [activator, partial curve, poor fit]"}
{"smiles": "Cc1[nH]nc2c1C(C1CC=CCC1)C(C#N)=C(N)O2", "note": "(stereo not given)", "Potency": "inconclusive: 16.4 µM [activator, single point]"}
{"smiles": "O=S(=O)(NCc1c(Cl)cccc1Oc1ccccc1)c1ccc(F)cc1", "Potency": "inconclusive: 18.4 µM [activator, single point]"}
{"smiles": "Cc1cc(NC(=O)c2ccc(COc3ccccc3Cl)o2)no1", "Potency": "inconclusive: 0.0046 µM [activator, full curve, poor fit]"}
{"smiles": "NC(=O)COc1ccc(/C=N\\NC(=O)c2ccc(-c3ccccc3)cc2)cc1", "Potency": "inconclusive: 29.1 µM [activator, single point]"}
{"smiles": "O=C1CCCC2=C1C(c1cccc(O)c1)c1c(ccc3ncccc13)N2", "note": "(stereo not given)", "Potency": "inconclusive: 29.1 µM [activator, single point]"}
{"smiles": "COc1ccc(N=C2SC(CC(=O)Nc3ccccc3)C(=O)N2Cc2ccccn2)cc1", "note": "(stereo not given)", "Potency": "inconclusive: 29.1 µM [activator, single point]"}
{"smiles": "Cc1cc(C)c(C)c(S(=O)(=O)NCC(=O)Nc2sc3c(c2C(N)=O)CCCC3)c1C", "Potency": "inconclusive: 29.1 µM [activator, single point]"}
{"smiles": "COc1ccc(C2c3c(oc4ccccc4c3=O)C(=O)N2CC2CCCO2)cc1", "note": "(stereo not given)", "Potency": "inconclusive: 0.092 µM [activator, full curve, poor fit]"}
{"smiles": "CC1CCCC(C)N1C(=O)CSCc1ccc(Cl)cc1", "note": "(stereo not given)", "Potency": "inactive"}
{"smiles": "COc1ccc2nc(SCCC(=O)O)cc(C)c2c1", "Potency": "inactive"}
{"smiles": "Cn1c(SCc2ccc(Br)cc2)nnc1-c1ccccn1", "Potency": "inactive"}
{"smiles": "CN(C)C(=O)CSc1nnc(Cc2ccc3c(c2)OCO3)o1", "Potency": "inconclusive: 1.16 µM [activator, single point]"}
{"smiles": "COCCN(C(=O)COC(=O)C12CC3CC(CC(C3)C1)C2)c1c(N)n(Cc2ccccc2)c(=O)[nH]c1=O", "Potency": "inactive"}
{"smiles": "CCOC(=O)N1CCN(S(=O)(=O)c2ccc(NC(C)=O)cc2)CC1", "Potency": "inconclusive: 2.06 µM [activator, partial curve, poor fit]"}
{"smiles": "Cc1ccc(NC2=Nc3ccccc3N3C2=Nc2c(c(C)nn2-c2ccccc2)C3c2ccc(O)c(O)c2)cc1", "note": "(stereo not given)", "Potency": "active: 9.2 µM"}
{"smiles": "Cc1cccc(C)c1Nc1nnc(SCc2nc3ccccc3s2)s1", "Potency": "inactive"}
{"smiles": "Cc1cccc(C(=O)NNC(=O)c2c(-c3ccccc3Cl)noc2C)c1O", "Potency": "inconclusive: 29.1 µM [activator, single point]"}
{"smiles": "CN(C)CCCN(C(=O)/C=C/c1cccs1)c1nc2ccc(F)cc2s1", "Potency": "inconclusive: 18.4 µM [activator, single point]"}
{"smiles": "O=C(N/N=C/c1cccc(F)c1)c1cc(-c2ccco2)nc2ccccc12", "Potency": "inconclusive: 29.1 µM [activator, single point]"}
{"smiles": "COC(=O)c1[nH]c2c(c1C)C(=O)CC(c1cccs1)C2", "note": "(stereo not given)", "Potency": "inconclusive: 1.46 µM [activator, full curve, poor fit]"}
{"smiles": "CC(=O)Nc1cccc(C(=O)Nc2cccnc2)c1", "Potency": "inactive"}
{"smiles": "COC(=O)N/N=C\\c1c(C)nn(-c2ccccc2)c1Cl", "Potency": "inconclusive: 25.9 µM [activator, partial curve, poor fit]"}
{"smiles": "CCn1c(=O)c(C(=O)NNC(=O)Cc2ccccc2)c(O)c2ccccc21", "Potency": "inconclusive: 29.1 µM [activator, single point]"}
{"smiles": "CCOc1ccc(NC(=O)CSc2ccc(-c3cccnc3)nn2)cc1", "Potency": "inconclusive: 0.082 µM [activator, full curve]"}
{"smiles": "CN=C(c1ccc([N+](=O)[O-])cc1)N1CCCCC1", "Potency": "inconclusive: 32.6 µM [activator, partial curve, poor fit]"}
{"smiles": "CO/N=C/C(=N\\Nc1ccc(C)cc1)C(=O)c1ccc(OC)cc1", "Potency": "inconclusive: 6.51 µM [activator, single point]"}
{"smiles": "NC(=O)C1CCN(C(=O)CCC(=O)c2cccs2)CC1", "Potency": "inactive"}
{"smiles": "CCC(=O)N1CCCc2ccccc21", "Potency": "inconclusive: 29.1 µM [activator, single point]"}
{"smiles": "CN(CC(=O)Nc1cccc(F)c1)C(=O)c1ccccc1Sc1ccccc1C#N", "Potency": "inconclusive: 2.06 µM [activator, partial curve]"}
{"smiles": "COc1ccc(NS(=O)(=O)c2ccc(N3CCOCC3)c(NC(=O)c3cccc(F)c3)c2)cc1", "Potency": "inconclusive: 23.1 µM [activator, single point]"}
{"smiles": "COc1ccc(NC(=S)N/N=C/c2ccc(F)cc2)cc1OC", "Potency": "inconclusive: 23.1 µM [activator, single point]"}
{"smiles": "COc1cccc(CNc2nnnn2C)c1OC", "Potency": "inactive"}
{"smiles": "CC[C@H](C)[C@@H]1NC(=O)[C@H]([C@@H](C)CC)NC(=O)[C@@H](CC(C)C)NC(=O)[C@H](Cc2ccccc2)NC(=O)[C@H](Cc2ccccc2)NC(=O)[C@@H]2CCCN2C(=O)[C@@H]2CCCN2C(=O)[C@H](C(C)C)NC(=O)[C@H](CC(C)C)NC1=O", "Potency": "inconclusive: 16.4 µM [activator, single point]"}
{"smiles": "Cc1nc(Cc2nnc(SCC(=O)N3CCN(c4ccc(O)cc4)CC3)o2)cs1", "Potency": "active: 2.06 µM"}
{"smiles": "Cc1ccccc1Cc1c(C)nc2c(C(=O)NCc3ccc4c(c3)OCO4)cnn2c1C", "Potency": "inactive"}
{"smiles": "COc1ccc2cc(/C=N/NC(=O)CSCc3ccc([N+](=O)[O-])cc3)c(Cl)nc2c1", "Potency": "inconclusive: 20.6 µM [activator, single point]"}
{"smiles": "O=C(CSC1=NCCS1)Nc1ccc(S(=O)(=O)N2CCCCCC2)cc1", "Potency": "inconclusive: 14.6 µM [activator, partial curve]"}
{"smiles": "COc1ccccc1NC(=O)COc1cc(Br)c(CNCCCN2CCOCC2)cc1OC", "Potency": "inactive"}
{"smiles": "CCOc1ccc(NC(=S)N(CCCN2CCOCC2)Cc2cn(C)c3ccccc23)cc1", "Potency": "inconclusive: 20.6 µM [activator, single point]"}
{"smiles": "CC(C(=O)Nc1ccc(O)cc1)c1cccc(C(=O)c2ccccc2)c1", "note": "(stereo not given)", "Potency": "inconclusive: 18.4 µM [activator, partial curve, poor fit]"}
{"smiles": "Cc1ccccc1COC[C@H](CC(C)C)N1CCN(C(=O)c2cccc(C(F)(F)F)c2)CCC1=O", "Potency": "inconclusive: 11.6 µM [activator, partial curve]"}
{"smiles": "O=C(COc1ccccc1)Nc1nnc(-c2ccc(Cl)cc2)o1", "Potency": "inactive"}
